# Results from PubChem BioAssay AID493014 (National Center for Advancing Translational Sciences (NCATS), 2011).
# Values joined by “and” are separate entries in the source; they are usually repeats but may differ in a detail not shown here. Identical values can stand only once. Out of some 340,000 compounds screened, about 170 (0.05%) were called active. Inconclusive means that the source gave no clear call. Such entries were picked first, then a sample of the others. Calls come from the whole dose curve; as a rule, active = well fitted inhibition curve with a large enough effect in the signal ratio, with a control signal flat (not every such curve was filed as active); inconclusive = small, poorly fitted or top-dose-only effect, or effect the other way, or a change in a side signal; inactive = flat fitted curve, though single readings scatter; the % refers to the signal ratio. Potencies beside an inconclusive call are fits to weak or partial responses and may not hold up.
# Assay: qHTS Assay to Find Inhibitors of Chronic Active B-Cell Receptor Signaling;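 for activity change, negative = inhibition: plate controls were basal doxycycline-induced cells for no effect and cells given 10 µM MG132 for full effect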
# Settings: ABC-DLBCL IkBa-CBG/CBR reporter, luminescence ratio (green luciferase fused to IkBa over red control in TMD8 lymphoma cells), 4 h; activity change, negative = inhibition: at 46.1 µM (top of the series) unless noted
# Outline: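 Concentration-response series (up to 46 uM) were applied to TMD8 dual-reporter cells for 4 h at 37C with doxycycline. Green/red ratio, after filter-overlap correction, defined %Activity; red signal alone was normalised to basal cells and zero luminescence.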
# Potency is the fitted concentration of half-maximal effect.
Structure (SMILES),"activity change, negative = inhibition",Potency
O=C1CSC(c2cn(-c3ccccc3)nc2-c2cccs2)N1CC1CCCO1 (stereo not given),inconclusive: -28%,–
O=C(c1ccc(Cl)c(S(=O)(=O)N2CCOCC2)c1)N(Cc1nnc(-c2ccccc2Cl)o1)C1CC1,inactive,–
Cn1ccnc1/C(=N\NC(=O)c1ccccc1)c1cccc([N+](=O)[O-])c1,inconclusive: 2.41%,–
Cc1c2cnn(-c3ccccc3)c(=O)c2c(C)n1CCCC(=O)N1CCN(C)CC1,–,"inconclusive: 6.51 µM [rising, partial curve, poor fit]"
CC1(C)CC(=O)C(C=Nc2ccccc2C(=O)O)=C(O)C1,–,"inconclusive: 15.8 µM [falling, single point]"
O=C(O)Cc1ccc(NC(=O)Nc2cccc3ccccc23)cc1,inconclusive: -17.8%,–
Cc1ccc(-n2nc(C)c(NC(=O)CCl)c2C)cc1C,–,"inconclusive: 18.4 µM [falling, single point]"
O=C(c1cc2c(s1)-c1ccccc1OC2)N1CCN(c2ccccc2)CC1,–,"inconclusive: 14.6 µM [falling, partial curve, poor fit]"
O=C1/C(=C/c2ccccc2Cl)SC(=S)N1CCC(=O)N1CCCCC1CCO (stereo not given),–,"inconclusive: 35.5 µM [falling, single point]"
O=C(CN1C(=O)NC2(CCCCCC2)C1=O)NCCc1ccccc1,inconclusive: 2.8%,–
Cc1ccc(NC(=O)Nc2ccc3c(c2)OCO3)cc1F,inconclusive: 6.57%,–
O=C(CSc1ccc(Br)cc1)NC1CCCCCC1,inactive,–
CN(Cc1cn(C)nc1-c1cccc(Cl)c1)Cc1nccn1C,inactive,–
S=C(Nc1ccc(Cl)cc1)N1CCCCC1,inconclusive: 7.55%,–
Cc1ccccc1NC(=O)c1ccc2c(c1)N(C)CCS2,–,"inconclusive: 3.98 µM [falling, partial curve, poor fit]"
Cc1ccc(OCCCSc2ncccn2)cc1C,–,"inconclusive: 9.2 µM [rising, partial curve, poor fit]"
C=CCNC(=S)NNC(=O)C(CCCC)CC(C)O (stereo not given),–,"inconclusive: 0.116 µM [rising, full curve, poor fit]"
O=C(CCc1ccccc1)N(Cc1cccnc1)c1nc2c(F)cccc2s1,inconclusive: 15.9%,–
O=C(Nc1ccc(Cl)c(Cl)c1)OCc1cccnc1,inconclusive: 0.884%,–
COc1cccc(OCC(O)CN2CCC(CN3C(=O)c4cccc5cccc(c45)C3=O)CC2)c1 (stereo not given),inactive,–
NS(=O)(=O)c1ccc(NC(=O)CSc2nc3c(c(=O)[nH]2)CCCC3)cc1,–,"inconclusive: 35.5 µM [falling, single point]"
O=C(NCCc1ccccn1)c1ccc(OC2CCN(CCc3ccccc3)CC2)cc1,inactive,–
O=C(NCCc1ccc(Cl)cc1)C1CCCN(S(=O)(=O)c2cnc[nH]2)C1 (stereo not given),–,"inconclusive: 18.4 µM [falling, partial curve]"
Cc1ccc(NC(=O)C(NC2CCCC2)c2ccccc2)cc1Cl (stereo not given),inconclusive: 15%,–
O=C(O)CCCNS(=O)(=O)c1cccs1,inactive,–
C(=N\n1cnnc1)/c1ccc(OCc2ccccc2)cc1,inconclusive: -1.43%,–
Fc1cccc(Cl)c1CSc1nnc(-c2ccncc2)o1,inactive,–

Structure (SMILES),"activity change, negative = inhibition",Potency
CC(C)Cc1cc(C(=O)Nc2c(F)cc(F)cc2Br)no1,–,"inconclusive: 20.6 µM [falling, partial curve, poor fit]"
Cc1nc(SCC(=O)NCc2ccc3c(c2)OCO3)c(C#N)c2c1CCCC2,inconclusive: 0.862%,–
Cc1ccc(NC(=O)N2CCC(c3ccccc3)C2)cc1C (stereo not given),–,"inconclusive: 35.5 µM [rising, partial curve] and inconclusive: 25.1 µM [falling, partial curve]"
Cc1csc(NC(=O)CSC2=NS(=O)(=O)c3cc(F)ccc3N2)n1,inconclusive: -6.81%,–
N#CCCN(Cc1cccs1)C(=O)Nc1ccccc1,inconclusive: -0.453%,–
COc1ccc2sc(NCc3ccccc3)nc2c1,–,"inconclusive: 11.2 µM [falling, partial curve]"
Cc1cccc(NC(=O)CSc2c(C)cnc3c2c(=O)n(C)c(=O)n3C)c1C,inactive,–
CCn1c(N2CCN(C(=O)c3ccco3)CC2)nc2ccccc21,inactive,–
O=C(c1ccccc1/S(=N/S(=O)(=O)c1ccccc1)N1CCOCC1)N1CCOCC1 (stereo not given),inconclusive: 6.46%,–
O=C(CCC1CCCNC1)c1ccccc1 (stereo not given),inactive,–
O=C(N/N=C/c1c(O)ccc2ccccc12)c1cccnc1,inconclusive: -11.2%,–
Cc1cccc(N(CC(=O)NCCc2ccccc2)C(=O)c2csnn2)c1,inactive,–
N#Cc1c2ccc(OCC(=O)NCc3ccco3)cc2n2ccccc12,inconclusive: -0.0678%,–
COc1ccc(N2C(=O)C3C(c4ccc(OC)cc4O)NC(Cc4ccccc4)(C(=O)O)C3C2=O)cc1 (stereo not given),inconclusive: -16.5%,–
O=C1[C@H]2[C@@H](C3CC3)N3C(=O)CN(CC4CC4)C(=O)[C@@]3(Cc3ccccc3)[C@H]2C(=O)N1c1ccccc1,inactive,–
O=C(CCN1CCc2ccccc21)c1ccc2c(c1)OCCO2,inactive,–
Cc1ccc(CN(Cc2ccc(C)o2)C(=S)NCC(=O)O)cc1,inactive,–
CCCC1CCc2c(sc(N)c2C(N)=O)C1 (stereo not given),inconclusive: 0.837%,–
COc1ccccc1OCc1ccc(C(=O)NN)o1,–,"inconclusive: 12.6 µM [falling, partial curve]"
COc1ccc(-c2c(C)nn(-c3ccccc3)c2N)cc1,–,"inconclusive: 25.9 µM [rising, single point]"
CCOC(=O)c1c(CN2CCN(CCO)CC2)n(C)c2cc(Br)c(OC)cc12,inconclusive: -19.8%,–
CC(Oc1ccc2oc(-c3ccccc3)c(C(=O)O)c2c1)C(=O)O (stereo not given),–,"inconclusive: 6.51 µM [rising, partial curve, poor fit]"
O=c1cc(O)c(-c2ccc(Cl)cc2)c(Cl)[nH]1,inconclusive: 12.6%,–
CCOC(=O)Cc1cc(=O)n2[nH]c(C)c(-c3ccccc3)c2n1,–,"inconclusive: 25.1 µM [falling, single point]"
Cc1nn2c(NCc3ccccn3)cc(C(C)C)nc2c1-c1ccccc1,inactive,–
COc1ccc(C(=O)N/C(=C\c2ccccc2)C(=O)NC(CCSC)C(=O)O)cc1 (stereo not given),inconclusive: 3.41%,–
COc1cccc(C(=O)NCCS(=O)(=O)N2CCC(C)CC2)c1,inactive,–

Structure (SMILES),"activity change, negative = inhibition",Potency
Cc1ccc(-n2c(C)nnc2SCC(=O)N(C)c2c(N)n(Cc3ccccc3)c(=O)[nH]c2=O)cc1,inconclusive: -10%,–
O=C(CNC(=O)c1ccccc1Cl)N/N=C/c1ccc2c(c1)OCO2,inconclusive: -8.95%,–
O=c1nc(N/N=C/C=C/c2ccccc2)cn[nH]1,–,"inconclusive: 3.16 µM [falling, single point]"
CC1CCN(C(=O)/C=C/c2ccc(C(C)(C)C)cc2)CC1,inconclusive: 3.6%,–
COc1cccc(/C=N/NC(=O)CNC(=O)/C=C\c2ccccc2)c1O,inactive,–
COc1ccc(-n2c(SCC(=O)NC3CC3)nc3ccccc3c2=O)cc1OC,inconclusive: -2.25%,–
O=C1N=C(N2CCN(c3ccccc3)CC2)S/C1=C\c1cn[nH]c1-c1ccccc1,inconclusive: -3.33%,–
CCc1ccccc1NC(=O)c1cc(-c2ccco2)on1,–,"inconclusive: 25.1 µM [falling, partial curve]"
Cc1ccc(N=CC2=C(O)CC(c3ccco3)CC2=O)cc1 (stereo not given),–,"inconclusive: 35.5 µM [falling, single point]"
O=C(COC(=O)[C@H](Cc1ccccc1)NC(=O)c1cccs1)Nc1c(Cl)cccc1Cl,–,"inconclusive: 7.31 µM [falling, partial curve, poor fit]"
O=C(COc1ccccc1C(=O)c1cnn(-c2ccccc2)c1)Nc1ccccc1,–,"inconclusive: 7.31 µM [falling, partial curve]"
COc1cc(OC)cc(-c2c(-c3ccc(F)cc3)c3cc(-c4ccc5cc[nH]c5c4)ccc3n2C)c1,inactive,–
COC(=O)c1ccc(-c2ccc(/C=N/N3C(=O)C4C5C=CC(C6CC56)C4C3=O)o2)cc1 (stereo not given),inconclusive: -19%,–
CN(C)C(=O)c1ccc(NC(=O)COC(=O)C2(c3ccccc3)CCCC2)cc1,inconclusive: -26.3%,–
CCN(CC)C(=O)CSC(=Nc1ccccc1F)NC#N,inconclusive: -20.4%,–
CC1CCCC(NC(=O)c2n[nH]c(=O)c3ccccc23)C1C (stereo not given),–,"inconclusive: 12.6 µM [falling, partial curve]"
Cc1cc(C(=O)COc2ccccc2C(N)=O)c(C)n1C,inactive,–
Cc1ccc(C)[n+](CC(=O)c2ccc(-c3ccccc3)cc2)c1,inactive,–
COc1ccc(OC)c(NC(=O)CCC(=O)Nc2nnc(C(F)(F)F)s2)c1,inconclusive: -1.22%,–
Cn1cnnc1SCC(=O)NCCc1ccccc1,inconclusive: -13.7%,–
CC(CN(C)Cc1ccccc1)OC(=O)c1ccc2c(c1)OCCO2 (stereo not given),inactive,–
CCOC(=O)Cc1csc(NC(=O)COc2cccc(C)c2)n1,–,"inconclusive: 11.2 µM [falling, partial curve]"
CN(C(=O)CSC1=Nc2ccccc2C2=NC(c3ccccc3)C(=O)N12)C1CCCCC1 (stereo not given),–,"inconclusive: 0.731 µM [rising, full curve, poor fit]"
Cc1ccc(NC(=O)c2ccc(CSc3ccccn3)cc2)cc1,–,"inconclusive: 22.4 µM [falling, single point]"
O=C(Nc1cccc(Cl)c1N1CCOCC1)c1ccc([N+](=O)[O-])o1,inactive,–
CCN(CC)c1ccc(/C=N/NC(=O)c2ccco2)cc1,–,"inconclusive: 25.9 µM [cytotoxic, single point]"
